Laboratory results from the supplement of paper PMC11546906.
Counter-ions that a name gives are not always drawn. This is one part of the list. This data set is noisy: repeats of one test often differ as much as different tests do.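 FDA-approved drugs were each paired with colistin at one-eighth its MIC and screened against a multidrug-resistant, mcr-1-positive clinical E. coli isolate, with OD600 read after 24 h. Drug-free bacteria served as growth control, plain broth as blank. Combinations were active if OD600 dropped below 0.2.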

system: Escherichia coli 42 (mcr-1-positive clinical isolate); assay: OD600 after 24 h growth with compound plus colistin (absorbance units (OD600)); higher = more bacterial growth (less inhibition); conditions: first compound 25 µM; colistin concentration 0.5 ug/mL; incubation time 24 h; 37 °C

OD600, inactive:
CCCCC1=NC2(CCCC2)C(=O)N1Cc1ccc(-c2ccccc2-c2nnn[nH]2)cc1 [Irbesartan] + CCC(C)CCCC(=O)N[C@@H](CCN)C(=O)N[C@H](C(=O)N[C@@H](CCN)C(=O)N[C@H]1CCNC(=O)[C@H]([C@@H](C)O)NC(=O)[C@H](CCN)NC(=O)[C@H](CCN)NC(=O)[C@H](CC(C)C)NC(=O)[C@@H](CC(C)C)NC(=O)[C@H](CCN)NC1=O)[C@@H](C)O [colistin] 0.784
Cc1cccc(CN2CCN(C(c3ccccc3)c3ccc(Cl)cc3)CC2)c1 (centres undefined) [Meclizine dihydrochloride] + CCC(C)CCCC(=O)N[C@@H](CCN)C(=O)N[C@H](C(=O)N[C@@H](CCN)C(=O)N[C@H]1CCNC(=O)[C@H]([C@@H](C)O)NC(=O)[C@H](CCN)NC(=O)[C@H](CCN)NC(=O)[C@H](CC(C)C)NC(=O)[C@@H](CC(C)C)NC(=O)[C@H](CCN)NC1=O)[C@@H](C)O [colistin] 0.839
CC1(C)O[C@@H]2[C@@H](CO[C@@]3(COS(N)(=O)=O)OC(C)(C)O[C@@H]23)O1 [Topiramate] + CCC(C)CCCC(=O)N[C@@H](CCN)C(=O)N[C@H](C(=O)N[C@@H](CCN)C(=O)N[C@H]1CCNC(=O)[C@H]([C@@H](C)O)NC(=O)[C@H](CCN)NC(=O)[C@H](CCN)NC(=O)[C@H](CC(C)C)NC(=O)[C@@H](CC(C)C)NC(=O)[C@H](CCN)NC1=O)[C@@H](C)O [colistin] 1.09
CCCC1O[C@@H]2C[C@H]3[C@@H]4CCC5=CC(=O)C=C[C@]5(C)[C@H]4[C@@H](O)C[C@]3(C)[C@]2(C(=O)CO)O1 (some centres undefined) [Budesonide] + CCC(C)CCCC(=O)N[C@@H](CCN)C(=O)N[C@H](C(=O)N[C@@H](CCN)C(=O)N[C@H]1CCNC(=O)[C@H]([C@@H](C)O)NC(=O)[C@H](CCN)NC(=O)[C@H](CCN)NC(=O)[C@H](CC(C)C)NC(=O)[C@@H](CC(C)C)NC(=O)[C@H](CCN)NC1=O)[C@@H](C)O [colistin] 1.04
CC(=O)O[C@]1(C(C)=O)CC[C@H]2[C@@H]3C[C@H](C)C4=CC(=O)CC[C@]4(C)[C@H]3CC[C@@]21C [Medroxyprogesterone Acetate] + CCC(C)CCCC(=O)N[C@@H](CCN)C(=O)N[C@H](C(=O)N[C@@H](CCN)C(=O)N[C@H]1CCNC(=O)[C@H]([C@@H](C)O)NC(=O)[C@H](CCN)NC(=O)[C@H](CCN)NC(=O)[C@H](CC(C)C)NC(=O)[C@@H](CC(C)C)NC(=O)[C@H](CCN)NC1=O)[C@@H](C)O [colistin] 1.15
CN(C)CCOC(c1ccccc1)c1ccccc1 [Diphenhydramine hydrochloride] + CCC(C)CCCC(=O)N[C@@H](CCN)C(=O)N[C@H](C(=O)N[C@@H](CCN)C(=O)N[C@H]1CCNC(=O)[C@H]([C@@H](C)O)NC(=O)[C@H](CCN)NC(=O)[C@H](CCN)NC(=O)[C@H](CC(C)C)NC(=O)[C@@H](CC(C)C)NC(=O)[C@H](CCN)NC1=O)[C@@H](C)O [colistin] 1.06
COCCCOc1ccnc(C[S+]([O-])c2nc3ccccc3[nH]2)c1C (centres undefined) [Rabeprazole sodium] + CCC(C)CCCC(=O)N[C@@H](CCN)C(=O)N[C@H](C(=O)N[C@@H](CCN)C(=O)N[C@H]1CCNC(=O)[C@H]([C@@H](C)O)NC(=O)[C@H](CCN)NC(=O)[C@H](CCN)NC(=O)[C@H](CC(C)C)NC(=O)[C@@H](CC(C)C)NC(=O)[C@H](CCN)NC1=O)[C@@H](C)O [colistin] 0.873
O=C1CCCC(=O)C1C(=O)c1ccc(C(F)(F)F)cc1[N+](=O)[O-] [Nitisinone] + CCC(C)CCCC(=O)N[C@@H](CCN)C(=O)N[C@H](C(=O)N[C@@H](CCN)C(=O)N[C@H]1CCNC(=O)[C@H]([C@@H](C)O)NC(=O)[C@H](CCN)NC(=O)[C@H](CCN)NC(=O)[C@H](CC(C)C)NC(=O)[C@@H](CC(C)C)NC(=O)[C@H](CCN)NC1=O)[C@@H](C)O [colistin] 0.916
CC[C@@H](CO)NCCN[C@@H](CC)CO [Ethambutol dihydrochloride] + CCC(C)CCCC(=O)N[C@@H](CCN)C(=O)N[C@H](C(=O)N[C@@H](CCN)C(=O)N[C@H]1CCNC(=O)[C@H]([C@@H](C)O)NC(=O)[C@H](CCN)NC(=O)[C@H](CCN)NC(=O)[C@H](CC(C)C)NC(=O)[C@@H](CC(C)C)NC(=O)[C@H](CCN)NC1=O)[C@@H](C)O [colistin] 1.02
Cc1nc2n(c(=O)c1CCN1CCC(c3noc4cc(F)ccc34)CC1)CCCC2O (centres undefined) [Paliperidone] + CCC(C)CCCC(=O)N[C@@H](CCN)C(=O)N[C@H](C(=O)N[C@@H](CCN)C(=O)N[C@H]1CCNC(=O)[C@H]([C@@H](C)O)NC(=O)[C@H](CCN)NC(=O)[C@H](CCN)NC(=O)[C@H](CC(C)C)NC(=O)[C@@H](CC(C)C)NC(=O)[C@H](CCN)NC1=O)[C@@H](C)O [colistin] 1.13
CN1CC(=O)N2[C@H](c3ccc4c(c3)OCO4)c3[nH]c4ccccc4c3C[C@@H]2C1=O [Tadalafil] + CCC(C)CCCC(=O)N[C@@H](CCN)C(=O)N[C@H](C(=O)N[C@@H](CCN)C(=O)N[C@H]1CCNC(=O)[C@H]([C@@H](C)O)NC(=O)[C@H](CCN)NC(=O)[C@H](CCN)NC(=O)[C@H](CC(C)C)NC(=O)[C@@H](CC(C)C)NC(=O)[C@H](CCN)NC1=O)[C@@H](C)O [colistin] 0.76
CCCNC(C)C(=O)Nc1c(C)csc1C(=O)OC (centres undefined) [Articaine hydrochloride] + CCC(C)CCCC(=O)N[C@@H](CCN)C(=O)N[C@H](C(=O)N[C@@H](CCN)C(=O)N[C@H]1CCNC(=O)[C@H]([C@@H](C)O)NC(=O)[C@H](CCN)NC(=O)[C@H](CCN)NC(=O)[C@H](CC(C)C)NC(=O)[C@@H](CC(C)C)NC(=O)[C@H](CCN)NC1=O)[C@@H](C)O [colistin] 1.08
CC(=O)Oc1ccccc1C(=O)O [Aspirin] + CCC(C)CCCC(=O)N[C@@H](CCN)C(=O)N[C@H](C(=O)N[C@@H](CCN)C(=O)N[C@H]1CCNC(=O)[C@H]([C@@H](C)O)NC(=O)[C@H](CCN)NC(=O)[C@H](CCN)NC(=O)[C@H](CC(C)C)NC(=O)[C@@H](CC(C)C)NC(=O)[C@H](CCN)NC1=O)[C@@H](C)O [colistin] 1.02
CCOC(=O)N1CCC(=C2c3ccc(Cl)cc3CCc3cccnc32)CC1 [Loratadine] + CCC(C)CCCC(=O)N[C@@H](CCN)C(=O)N[C@H](C(=O)N[C@@H](CCN)C(=O)N[C@H]1CCNC(=O)[C@H]([C@@H](C)O)NC(=O)[C@H](CCN)NC(=O)[C@H](CCN)NC(=O)[C@H](CC(C)C)NC(=O)[C@@H](CC(C)C)NC(=O)[C@H](CCN)NC1=O)[C@@H](C)O [colistin] 0.906
Cc1ccc(O)c([C@H](CCN(C(C)C)C(C)C)c2ccccc2)c1 [Tolterodine tartrate] + CCC(C)CCCC(=O)N[C@@H](CCN)C(=O)N[C@H](C(=O)N[C@@H](CCN)C(=O)N[C@H]1CCNC(=O)[C@H]([C@@H](C)O)NC(=O)[C@H](CCN)NC(=O)[C@H](CCN)NC(=O)[C@H](CC(C)C)NC(=O)[C@@H](CC(C)C)NC(=O)[C@H](CCN)NC1=O)[C@@H](C)O [colistin] 1.16
CCCc1nc(C(C)(C)O)c(C(=O)OCc2oc(=O)oc2C)n1Cc1ccc(-c2ccccc2-c2nnn[nH]2)cc1 [Olmesartan Medoxomil] + CCC(C)CCCC(=O)N[C@@H](CCN)C(=O)N[C@H](C(=O)N[C@@H](CCN)C(=O)N[C@H]1CCNC(=O)[C@H]([C@@H](C)O)NC(=O)[C@H](CCN)NC(=O)[C@H](CCN)NC(=O)[C@H](CC(C)C)NC(=O)[C@@H](CC(C)C)NC(=O)[C@H](CCN)NC1=O)[C@@H](C)O [colistin] 0.977
COc1cnc(NS(=O)(=O)c2ccc(N)cc2)nc1 [Sulfameter] + CCC(C)CCCC(=O)N[C@@H](CCN)C(=O)N[C@H](C(=O)N[C@@H](CCN)C(=O)N[C@H]1CCNC(=O)[C@H]([C@@H](C)O)NC(=O)[C@H](CCN)NC(=O)[C@H](CCN)NC(=O)[C@H](CC(C)C)NC(=O)[C@@H](CC(C)C)NC(=O)[C@H](CCN)NC1=O)[C@@H](C)O [colistin] 1.14
CCC(C)n1ncn(-c2ccc(N3CCN(c4ccc(OCC5COC(Cn6cncn6)(c6ccc(Cl)cc6Cl)O5)cc4)CC3)cc2)c1=O (centres undefined) [Itraconazole] + CCC(C)CCCC(=O)N[C@@H](CCN)C(=O)N[C@H](C(=O)N[C@@H](CCN)C(=O)N[C@H]1CCNC(=O)[C@H]([C@@H](C)O)NC(=O)[C@H](CCN)NC(=O)[C@H](CCN)NC(=O)[C@H](CC(C)C)NC(=O)[C@@H](CC(C)C)NC(=O)[C@H](CCN)NC1=O)[C@@H](C)O [colistin] 1.08
COc1ccc2cc([C@H](C)C(=O)O)ccc2c1 [Naproxen] + CCC(C)CCCC(=O)N[C@@H](CCN)C(=O)N[C@H](C(=O)N[C@@H](CCN)C(=O)N[C@H]1CCNC(=O)[C@H]([C@@H](C)O)NC(=O)[C@H](CCN)NC(=O)[C@H](CCN)NC(=O)[C@H](CC(C)C)NC(=O)[C@@H](CC(C)C)NC(=O)[C@H](CCN)NC1=O)[C@@H](C)O [colistin] 0.918

A run of entries taken from the entries so far, for reference:
OD600, inactive:
CC(=O)O[C@]1(C(C)=O)CC[C@H]2[C@@H]3C[C@H](C)C4=CC(=O)CC[C@]4(C)[C@H]3CC[C@@]21C [Medroxyprogesterone Acetate] + CCC(C)CCCC(=O)N[C@@H](CCN)C(=O)N[C@H](C(=O)N[C@@H](CCN)C(=O)N[C@H]1CCNC(=O)[C@H]([C@@H](C)O)NC(=O)[C@H](CCN)NC(=O)[C@H](CCN)NC(=O)[C@H](CC(C)C)NC(=O)[C@@H](CC(C)C)NC(=O)[C@H](CCN)NC1=O)[C@@H](C)O [colistin] 1.15
CN(C)CCOC(c1ccccc1)c1ccccc1 [Diphenhydramine hydrochloride] + CCC(C)CCCC(=O)N[C@@H](CCN)C(=O)N[C@H](C(=O)N[C@@H](CCN)C(=O)N[C@H]1CCNC(=O)[C@H]([C@@H](C)O)NC(=O)[C@H](CCN)NC(=O)[C@H](CCN)NC(=O)[C@H](CC(C)C)NC(=O)[C@@H](CC(C)C)NC(=O)[C@H](CCN)NC1=O)[C@@H](C)O [colistin] 1.06
COCCCOc1ccnc(C[S+]([O-])c2nc3ccccc3[nH]2)c1C (centres undefined) [Rabeprazole sodium] + CCC(C)CCCC(=O)N[C@@H](CCN)C(=O)N[C@H](C(=O)N[C@@H](CCN)C(=O)N[C@H]1CCNC(=O)[C@H]([C@@H](C)O)NC(=O)[C@H](CCN)NC(=O)[C@H](CCN)NC(=O)[C@H](CC(C)C)NC(=O)[C@@H](CC(C)C)NC(=O)[C@H](CCN)NC1=O)[C@@H](C)O [colistin] 0.873
